Drawing on publication PMC8390506, this text covers binding for 1 substance.

These are yes or no findings as the source states them, for the method shown. Binding calls can cover weak binding; strength is not graded here.

Test [1] concerns the target T1, C-terminal half of TPX2 (amino acids 319-716) (Xenopus laevis) (UniProt Q6NUF4).
T1 sequence: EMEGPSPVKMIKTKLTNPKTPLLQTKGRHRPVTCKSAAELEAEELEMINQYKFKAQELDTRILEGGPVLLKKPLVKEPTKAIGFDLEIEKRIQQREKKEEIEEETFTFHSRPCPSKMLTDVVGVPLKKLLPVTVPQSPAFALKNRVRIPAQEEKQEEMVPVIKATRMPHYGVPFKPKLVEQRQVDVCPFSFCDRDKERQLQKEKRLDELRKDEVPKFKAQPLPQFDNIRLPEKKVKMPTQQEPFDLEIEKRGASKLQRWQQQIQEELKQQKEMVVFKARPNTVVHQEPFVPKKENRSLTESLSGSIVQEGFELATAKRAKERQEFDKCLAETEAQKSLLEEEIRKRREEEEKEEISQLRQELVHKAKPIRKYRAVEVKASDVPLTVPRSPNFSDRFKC
Kind of test: BLI; Octet (ForteBio); TPX2 attached to sensors, importin concentration varied; normalized amplitudes; apparent Kd; both purified. Background: Biolayer interferometry detects binding as a change in optical thickness at a sensor tip.

The target of test [2] is T2, TPX2 construct 1 to 99 (Xenopus laevis) (UniProt Q6NUF4).
T2 sequence: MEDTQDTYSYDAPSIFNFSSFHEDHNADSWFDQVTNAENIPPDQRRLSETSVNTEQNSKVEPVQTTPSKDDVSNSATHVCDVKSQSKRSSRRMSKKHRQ
The test is described as above.

Consider “importin-αΔIBB (truncated importin-α without the importin-β-binding domain) (Xenopus laevis) (domain or fragment)”, for which the binding entry in test [1] and in test [2] was “binds weakly” throughout.
